{"sequences": {"note": "Sequences of proteins named here, by UniProt entry; tags and fusion partners are left off. Residues count along the entry.", "UniProt P09192, residues 2-330": "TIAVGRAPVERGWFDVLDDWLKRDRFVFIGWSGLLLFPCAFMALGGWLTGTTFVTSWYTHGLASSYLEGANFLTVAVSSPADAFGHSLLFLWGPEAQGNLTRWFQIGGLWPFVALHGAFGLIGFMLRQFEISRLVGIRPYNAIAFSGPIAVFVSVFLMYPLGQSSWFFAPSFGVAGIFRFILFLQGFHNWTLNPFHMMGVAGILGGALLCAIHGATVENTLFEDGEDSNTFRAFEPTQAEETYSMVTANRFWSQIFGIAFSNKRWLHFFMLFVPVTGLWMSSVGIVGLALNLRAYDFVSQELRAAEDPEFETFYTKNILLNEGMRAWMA", "UniProt P32422": "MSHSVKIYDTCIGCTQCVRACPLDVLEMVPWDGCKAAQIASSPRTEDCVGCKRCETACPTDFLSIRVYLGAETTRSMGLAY", "UniProt P29255": "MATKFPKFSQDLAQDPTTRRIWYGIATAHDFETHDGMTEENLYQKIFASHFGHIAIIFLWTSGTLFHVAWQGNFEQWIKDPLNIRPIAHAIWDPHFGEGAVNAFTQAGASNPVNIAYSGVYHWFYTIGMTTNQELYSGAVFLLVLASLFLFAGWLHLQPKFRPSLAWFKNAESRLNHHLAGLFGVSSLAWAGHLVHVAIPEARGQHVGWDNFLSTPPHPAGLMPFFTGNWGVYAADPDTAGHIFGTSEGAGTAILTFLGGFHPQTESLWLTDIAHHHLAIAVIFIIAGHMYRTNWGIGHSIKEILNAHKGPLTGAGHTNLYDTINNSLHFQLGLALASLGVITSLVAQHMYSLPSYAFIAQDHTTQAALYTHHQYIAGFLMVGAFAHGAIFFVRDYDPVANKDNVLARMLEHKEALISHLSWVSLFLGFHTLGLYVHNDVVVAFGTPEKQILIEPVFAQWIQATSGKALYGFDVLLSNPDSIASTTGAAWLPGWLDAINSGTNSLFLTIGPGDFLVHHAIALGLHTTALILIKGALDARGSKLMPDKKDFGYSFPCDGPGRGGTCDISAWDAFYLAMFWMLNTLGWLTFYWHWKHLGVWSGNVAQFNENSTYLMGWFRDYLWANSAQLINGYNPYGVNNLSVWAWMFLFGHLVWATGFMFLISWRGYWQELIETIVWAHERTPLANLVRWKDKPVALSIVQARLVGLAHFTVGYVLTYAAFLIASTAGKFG", "UniProt P29254": "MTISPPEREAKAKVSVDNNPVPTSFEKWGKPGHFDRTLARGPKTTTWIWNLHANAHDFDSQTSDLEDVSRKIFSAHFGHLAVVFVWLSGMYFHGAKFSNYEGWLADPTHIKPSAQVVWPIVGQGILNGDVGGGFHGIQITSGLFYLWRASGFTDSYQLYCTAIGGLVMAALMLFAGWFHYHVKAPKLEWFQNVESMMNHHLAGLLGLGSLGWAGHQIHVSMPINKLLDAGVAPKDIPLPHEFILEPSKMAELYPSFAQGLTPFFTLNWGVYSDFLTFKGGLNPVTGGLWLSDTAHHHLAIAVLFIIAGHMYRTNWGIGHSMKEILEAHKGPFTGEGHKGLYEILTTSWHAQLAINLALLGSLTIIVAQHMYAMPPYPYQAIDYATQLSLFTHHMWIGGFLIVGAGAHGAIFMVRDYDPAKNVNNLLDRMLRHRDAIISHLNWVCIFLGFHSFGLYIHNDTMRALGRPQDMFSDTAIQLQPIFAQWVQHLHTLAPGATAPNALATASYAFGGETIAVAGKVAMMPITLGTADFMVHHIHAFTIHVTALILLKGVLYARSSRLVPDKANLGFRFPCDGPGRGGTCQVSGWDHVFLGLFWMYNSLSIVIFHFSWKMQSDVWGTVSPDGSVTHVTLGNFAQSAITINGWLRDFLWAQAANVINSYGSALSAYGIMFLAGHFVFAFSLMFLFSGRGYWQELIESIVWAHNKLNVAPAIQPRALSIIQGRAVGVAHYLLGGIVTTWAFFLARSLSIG"}, "source": "paper PMC10403576", "note": "These are yes or no findings as the source states them, for the method shown. In cells and extracts the contact can be indirect. Here binding means that the protein was enriched with, or labelled near, the bait; the list need not be complete.", "data": [{"target": "His-tagged D2 reaction center subunit of PSII (Synechocystis sp. PCC 6803) (UniProt P09192)", "assay": "affinity purification with mass spectrometry; His-tagged D2 complexes from thylakoid membranes of strain His-D2/ΔCP47 solubilised with 1.5% DM, Protino Ni-NTA agarose at 10 °C, then 10–30% sucrose gradient; the RCII/PSI fraction analysed by SDS-PAGE, immunoblotting and mass spectrometry", "values": [{"substance": "PsaC subunit of PSI (from UniProt P32422 1-81)", "binding": "binds"}, {"substance": "PsaB RC subunit of PSI (from UniProt P29255 1-731)", "binding": "binds"}, {"substance": "PsaA subunit of PSI (from UniProt P29254 1-751)", "binding": "binds"}]}]}
